From patent US20100041596A1
No constants are given. Whether binding was seen depends on the method and setting. Some results given as binding are weak or reduced against the parent protein; the word gives no strength. For some assays here: Tags and fused reporters may be left off the sequences shown.

T1: Fas fusion proteins with the death domain (CFP and YFP) (Homo sapiens (Human)), P25445
T1 chain: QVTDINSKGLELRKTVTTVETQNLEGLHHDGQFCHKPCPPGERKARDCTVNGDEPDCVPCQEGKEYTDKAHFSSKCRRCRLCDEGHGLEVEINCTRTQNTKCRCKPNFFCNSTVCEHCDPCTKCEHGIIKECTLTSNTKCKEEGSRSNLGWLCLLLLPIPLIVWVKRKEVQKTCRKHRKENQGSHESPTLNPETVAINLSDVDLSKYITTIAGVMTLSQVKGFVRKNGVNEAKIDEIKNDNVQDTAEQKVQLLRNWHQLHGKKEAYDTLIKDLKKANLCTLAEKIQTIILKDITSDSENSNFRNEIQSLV

T2: native Fas receptor of H9 lymphoma cells (Homo sapiens (Human)), P25445
T2 chain: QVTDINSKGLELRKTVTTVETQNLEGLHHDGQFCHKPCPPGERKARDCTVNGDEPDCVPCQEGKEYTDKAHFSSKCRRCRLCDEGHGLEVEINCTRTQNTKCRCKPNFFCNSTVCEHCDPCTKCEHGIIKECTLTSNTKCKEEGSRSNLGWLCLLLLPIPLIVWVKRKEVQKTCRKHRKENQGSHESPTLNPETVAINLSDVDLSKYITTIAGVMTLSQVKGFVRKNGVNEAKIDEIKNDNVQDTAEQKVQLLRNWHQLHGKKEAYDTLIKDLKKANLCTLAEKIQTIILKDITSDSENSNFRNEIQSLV


How the values were obtained:
[1] = target: T1, Fas fusion proteins with the death …; experiment: flow cytometric FRET, 293T cells; details: remark: other sources report otherwise
[2] = target: T2, native Fas receptor of H9 lymphoma …; experiment: immunoprecipitated Fas signaling complexes of H9 cells after APO-1 or FasL, blot; moderate FADD association after DTSSP alone; details: remark: other sources report otherwise

| Binder | binding [1] | binding [2] |
| --- | --- | --- |
| Fas fusion proteins with the death domain (CFP and YFP), P25445 26-335 (receptor, not shown: large carriers) QVTDINSKGLELRKTVTTVETQNLEGLHHDGQFCHKPCPPGERKARDCTVNGDEPDCVPCQEGKEYTDKAHFSSKCRRCRLCDEGHGLEVEINCTRTQNTKCRCKPNFFCNSTVCEHCDPCTKCEHGIIKECTLTSNTKCKEEGSRSNLGWLCLLLLPIPLIVWVKRKEVQKTCRKHRKENQGSHESPTLNPETVAINLSDVDLSKYITTIAGVMTLSQVKGFVRKNGVNEAKIDEIKNDNVQDTAEQKVQLLRNWHQLHGKKEAYDTLIKDLKKANLCTLAEKIQTIILKDITSDSENSNFRNEIQSLV | binds |  |
| FADD, Q13158 1-208 (protein, UniProt Q13158 1-208, looked up) MDPFLVLLHSVSSSLSSSELTELKFLCLGRVGKRKLERVQSGLDLFSMLLEQNDLEPGHTELLRELLASLRRHDLLRRVDDFEAGAAAGAAPGEEDLCAAFNVICDNVGKDWRRLARQLKVSDTKIDSIEDRYPRNLTERVRESLRIWKNTEKENATVAHLVGALRSCQMNLVADLVQEVQQARDLQNRSGAMSPMSWNSDASTSEAS |  | binds |
